Measured values from article PMC10901950 (Neurochemical Research, 2023).
HELM strings list residues between dots; [ac] is acetyl, [am] amide, other brackets name non-standard units.

Test: general procedure: Fmoc solid-phase peptide synthesis; Fmoc-Phe Wang (100–200 mesh, 0.69 mM/g, Novabiochem) or MBHA Rink-Amide peptide resin (100–200 mesh)
Details: whole synthesis, analytical RP-HPLC, Vydac C18 column

In order of rising “final HPLC purity” value:
1. PEPTIDE1{[Dmt].P.L.D.L.F}$$$$V2.0  95%
2. PEPTIDE1{Y.P.L.D.L.F.[am]}$$$$V2.0  95%
3. PEPTIDE1{Y.[Inp].L.D.L.F}$$$$V2.0  97%
4. PEPTIDE1{[Dmt].[Inp].L.D.L.F}$$$$V2.0  98%
5. PEPTIDE1{Y.P.L.D.L.F}$$$$V2.0  98%
6. PEPTIDE1{[Dmt].[RNip].L.D.L.F}$$$$V2.0  98%
7. PEPTIDE1{Y.[RNip].L.D.L.F}$$$$V2.0  98%
8. PEPTIDE1{Y.[Inp].L.D.L.F.[am]}$$$$V2.0  98%
